PubChem BioAssay AID504786 | Drosophila RNAi Screening Center – 2011

Assay: 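Positive regulators of HIF-driven reporter output in Drosophila cells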 (primary screen)
System: Drosophila S2 cells with a stable HIF luciferase reporter
Knock-down reagent: long dsRNA against Drosophila genes, about 0.2 µg dsRNA per well of a 384-well plate
Timing: three days of knock-down, then 20 h of DFO before reading
Challenge: desferrioxamine (DFO) at 100 µM, an iron chelator that mimics hypoxia, for 20 h
Detection: 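HIF reporter luminescence in cells given 100 µM DFO for 20 h, using the mouse ldh-a hypoxia-response element, scored as per-plate z-scores; higher means greater loss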
Direction: z-score: higher = stronger loss of HIF reporter signal
The deposit covers about 21,000 reagents; this is a random part of those with a known target gene and a result. 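Primary screen; positive scores mean lost reporter signal, so the sign may be inverted from the usual convention.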 A plus sign joins genes that one reagent is predicted to hit.

target gene	DRSC id	z-score, replicate 1	z-score, replicate 2
Miox	DRSC10747	-0.2	-0.1
CG6108 (retired record)	DRSC02929	-0.4	-0.4
SLO2	DRSC06212	5.2	3.4
SLO2	DRSC06214	-0.3	-0.3
SLO2	DRSC06216	-0.2	-0.5
SLO2	DRSC06218	-0.3	-0.5
SLO2	DRSC06219	2.4	2.2
CG6893	DRSC10742	-0.2	0.3
CG32655	DRSC18925	-0.4	-0.2
Cpsf100	DRSC14146	1	1.6
lectin-21Ca	DRSC00541	0	-0.2
OS9	DRSC02700	0.2	0.1
CG5828	DRSC02900	-0.2	-0.2
CG6254	DRSC16002	-0.3	-0.7
kappaB-Ras + CG30503	DRSC06619	-0.3	-0.5
kappaB-Ras + CG30503	DRSC07636	-0.2	-0.2
temp	DRSC18271	-0.3	-0.6
Trs23	DRSC03190	-0.5	-0.6
Cht11	DRSC18270	-0.3	-0.9
CG34357	DRSC12211	-0.2	-0.3
CG34357	DRSC12238	0.2	-0.9
CG34357	DRSC12334	-0.3	-0.4
CG13137	DRSC02234	-0.2	-0.3
GABPI	DRSC00494	-0.2	-0.3
out	DRSC19347	-0.4	-0.5
Jon66Ci	DRSC10772	-0.2	0.1
CG2839	DRSC00544	-0.4	-0.6
beag	DRSC15296	0	0.7
CG13640	DRSC14639	-0.3	0.9
JMJD5	DRSC08372	-0.2	-0.5
grim	DRSC11352	0.8	-0.8
Ltn1	DRSC11056	-0.3	-0.3
Ltn1	DRSC11058	-0.2	-0.2
CG6454	DRSC16044	-0.3	-0.8
